Data: PubChem BioAssay AID493014 (National Center for Advancing Translational Sciences (NCATS), 2011)
The other results are listed elsewhere or left out. Shown are side measurements of this screen, not its main read-out; they come without a call. Compounds called inactive in the main read-out are mostly missing here. Potencies come from curve fits of mixed quality, noted in brackets.

Test: qHTS Assay to Find Inhibitors of Chronic Active B-Cell Receptor Signaling
Settings: ABC-DLBCL IkBa-CBG/CBR reporter, luminescence ratio (green luciferase fused to IkBa over red control in TMD8 lymphoma cells), 4 h
In short: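 TMD8 human ABC-DLBCL cells with doxycycline-inducible IκBα–green luciferase fusion and unfused red luciferase, in 0.5% FBS medium; compounds up to 46 uM, 4 h at 37C. Green/red luminescence ratio, filter-overlap corrected, fitted to concentration-response curves.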

[1] = measured here: CBR red luminescence, cell number
[2] = measured here: IkBa-CBG green luminescence

## CN(C)CCNC(=O)c1ccc(COCC(F)(F)F)cc1
[1]
  AC50: 14.6 µM [rising, single point]

## COc1cccc(-c2nn(C)c3sc(C(=O)NCc4ccccn4)cc23)c1
[1]
  AC50: 16.4 µM [falling, partial curve, poor fit]

## O=C(Nc1cccc(NC(=O)c2ccccc2Cl)c1)c1ccc(F)cc1
[1]
  AC50: 35.5 µM [falling, single point]

## CN(C)c1ccc(N=Cc2nc(-c3ccccc3)oc2OC(=O)c2ccccc2)cc1
[1]
  AC50: 2.59 µM [falling, full curve]

## CCOC(=O)C1=C(COC(=O)CCOc2ccc(C)cc2)NC(=O)NC1C (configuration not stated)
[1]
  AC50: 10.3 µM [falling, partial curve]
[2]
  AC50: 11.6 µM [rising, partial curve, poor fit]

## COc1ccc(C(=O)COC(=O)C(CCCCN2C(=O)C3C4C=CC(C4)C3C2=O)N2C(=O)C3C4C=CC(C4)C3C2=O)cc1 (configuration not stated)
[1]
  AC50: 14.6 µM [rising, partial curve]

## CCC1CSC(Nc2ccc(C(=O)/C=C/c3ccc(OC)c(OC)c3)cc2)=N1 (configuration not stated)
[1]
  AC50: 18.4 µM [falling, single point]

## CCOP(=O)(OCC)c1nc(-c2ccccc2)oc1N1CCCCC1
[1]
  AC50: 3.55 µM [rising, full curve, poor fit]

## O=C(CSc1n[nH]c(=O)[nH]c1=O)N/N=C/c1ccccc1O
[1]
  AC50: 23.1 µM [rising, single point]

## O=C(CSc1nc2ccccc2o1)Nc1nc2ccc(Br)cc2s1
[1]
  AC50: 0.366 µM [falling, full curve, poor fit]

## O=C1N=c2ccccc2=C1c1sc(NS(=O)(=O)c2ccccc2)nc1O
[1]
  AC50: 10 µM [falling, partial curve, poor fit]

## CCc1c(C)sc(NC(=O)c2cccs2)c1C#N
[1]
  AC50: 2.31 µM [rising, full curve]

## CN(NS(=O)(=O)c1ccc(Cl)cc1)c1nc(C(F)(F)F)nc2ccccc12
[2]
  AC50: 15.8 µM [rising, partial curve, poor fit]

## CC1Cc2ccccc2N1C(=O)C1CCCN(S(=O)(=O)c2cccc3cccnc23)C1 (configuration not stated)
[1]
  AC50: 0.092 µM [falling, full curve, poor fit]

## C[C@H](CO)N1C[C@H](C)[C@@H](CN(C)Cc2ccc3c(c2)OCO3)Oc2c(NS(C)(=O)=O)cccc2C1=O
[1]
  AC50: 8.2 µM [rising, partial curve, poor fit]

## Cc1c(CCC(=O)NCCCn2ccnc2)c(=O)oc2c(C)c3oc4c(c3cc12)CCCC4
[1]
  AC50: 0.631 µM [rising, full curve, poor fit]
[2]
  AC50: 2 µM [falling, full curve, poor fit]

## COc1cccc(NC(=O)CC(=O)c2ccccc2)c1
[1]
  AC50: 35.5 µM [falling, single point]

## Cn1c(=N)n(CC(O)c2ccccc2)c2ccccc21 (configuration not stated)
[1]
  AC50: 14.6 µM [rising, single point]

## CCOC(=O)CNC(=O)c1cc2c(=O)[nH]c3ccc(C)cc3c2s1
[1]
  AC50: 2.82 µM [rising, single point]

## Cc1c(C(=O)N(Cc2ccc(N(C)C)cc2)C2CCS(=O)(=O)C2)oc2ccccc12 (configuration not stated)
[1]
  AC50: 0.112 µM [rising, full curve, poor fit]

## Cc1ccc(O)c(N=Nc2nccs2)c1
[1]
  AC50: 23.1 µM [rising, single point]
[2]
  AC50: 13 µM [falling, partial curve]

## Cc1ccc(Nc2ncnc3c2oc2ccccc23)cc1
[1]
  AC50: 13 µM [falling, partial curve, poor fit]

## CC1=C(c2ccccc2)[N+](=O)C2(CCCCC2)N1[O-]
[1]
  AC50: 12.6 µM [falling, single point]

## Clc1ccc(OCCOCCN2CCc3ccccc3C2)c(Cl)c1
[1]
  AC50: 18.4 µM [falling, partial curve, poor fit]

## O=C(NC(=S)Nc1ccccc1F)c1ccc(Br)o1
[1]
  AC50: 1 µM [rising, full curve, poor fit]

## Cc1ccc(-c2nnc(Nc3ccc(Br)cc3)c3ccccc23)cc1S(=O)(=O)N1CCN(C)CC1
[1]
  AC50: 2 µM [falling, full curve]

## CO/N=C/C(=N\Nc1ccc(OC)cc1)C(=O)c1ccc(OC)cc1
[1]
  AC50: 16.4 µM [rising, single point]

## NCCCn1c(C(=O)c2cc(Cl)c(N)c(Cl)c2)c2ccc([N+](=O)[O-])cc2[n+]1[O-]
[1]
  AC50: 10.3 µM [falling, partial curve]

## COc1cc([N+](=O)[O-])cc(/C=N/NC(=O)c2ccc(C)nc2)c1O
[1]
  AC50: 25.9 µM [falling, partial curve, poor fit]

## CC(Oc1ccc(Br)cc1)C(=O)Nc1ccc(S(=O)(=O)Nc2nccs2)cc1 (configuration not stated)
[1]
  AC50: 11.2 µM [falling, single point]

## CN(CC(=O)Nc1sccc1C#N)Cc1ccccc1
[1]
  AC50: 6.51 µM [rising, full curve, poor fit]

## CN(c1cccc(NC(=O)c2ccc(CN3CCc4ccccc4C3)cc2)c1)S(C)(=O)=O
[1]
  AC50: 35.5 µM [falling, single point]

## CC(C)(C)N(Cc1ccccc1)C(=O)COC(=O)c1ccc(Br)o1
[1]
  AC50: 1.64 µM [rising, full curve]

## CN(C)S(=O)(=O)N1CCC(CO)(CCc2ccccc2)CC1
[1]
  AC50: 35.5 µM [rising, single point]

## O=[N+]([O-])c1cccnc1Oc1ccc(OCc2ccccc2)cc1
[1]
  AC50: 7.94 µM [rising, partial curve, poor fit]

## O=c1[nH]cnc2c1C(c1ccccc1[N+](=O)[O-])c1c(nc[nH]c1=O)O2
[1]
  AC50: 0.058 µM [falling, full curve, poor fit]

## CCNC(=S)N1CCN(CC(=O)Nc2ccc(Br)cc2)CC1
[1]
  AC50: 2.91 µM [falling, partial curve, poor fit]

## C=C(C)COc1ccc(-c2[nH]ncc2-c2ccccc2OC)c(O)c1
[1]
  AC50: 0.398 µM [rising, full curve, poor fit]

## O=C(CC1Sc2ncnn2C1=O)Nc1ccc(Cl)cc1 (configuration not stated)
[1]
  AC50: 10 µM [falling, partial curve, poor fit]
